This note sets out measurements from PubChem BioAssay.

Assay [1] can be described thus: Wnt pathway potentiators raising nuclear beta-catenin – imaging, WNT3A-conditioned medium, mouse C2C12, NPC library, primary screen (AID 1117326). The settings on record: at 2 µM, stronger effect = higher value.
The nature of assay [2]: P. berghei load reduction in hepatocytes – cell-based, HepG2, luciferase luminescence, HepG2 viability, primary screen (AID 624349).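 Also: 100% = mean of DMSO negative control wells on the same plate.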 The settings on record: P. berghei liver stage in HepG2, luciferase luminescence; measured here: HepG2 viability without parasites; concentration not given here.
Assay [3] in a line: EMT-state selective cytotoxicity in co-culture – imaging, PC-3E GFP, TEM4-18 mCherry, primary screen (AID 1345086).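 Also: cells exposed to compound for 72 h before imaging.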 The conditions noted are these: PC-3E GFP / TEM4-18 mCherry co-culture, imaging cell counts, at 1 µM.
[4] abbreviates: measured here: epithelial PC-3E GFP cell survival.
[5] abbreviates: measured here: mesenchymal TEM4-18 mCherry cell survival.

SMILES strings stand for the structures. Several values for one entry are separate records, joined by “and”; a condition that tells them apart may be missing. Equal values may be shown once. The list shows a part of the results.

Usually viability stands for a read-out of living cells in per cent, often relative to untreated cells.

Consider `CN(C(=O)Cc1ccc(Cl)c(Cl)c1)[C@H]1CC[C@@]2(CCCO2)C[C@@H]1N1CCCC1`, for which, in assay [1], the nuclear beta-catenin stimulation was 0.9%.

Turning to `OCCSCCO`, the viability in assay [2] was 89.5%. Besides, the nuclear beta-catenin stimulation in assay [1] came to 4.8%. Besides, the figures for the normalised cell number in assay [3] (setting [4]) and in assay [3] (setting [5]) were 0.99 and 1, respectively.

For `CN(C)CCS`, the normalised cell number in assay [3] (setting [4]) turned out to be 0.94; in assay [3] (setting [5]), 0.99.

As to `C/C1=C2N=C(/C=C3N=C(/C(C)=C4\[N-][C@@](C)([C@@H]5N=C1[C@](C)(CCC(=O)NC[C@@H](C)OP(=O)([O-])O[C@H]1[C@@H](O)[C@@H](n6cnc7cc(C)c(C)cc76)O[C@@H]1CO)[C@H]5CC(N)=O)[C@@](C)(CC(N)=O)[C@@H]4CCC(N)=O)[C@@](C)(CC(N)=O)[C@@H]\3CCC(N)=O)C(C)(C)[C@@H]/2CCC(N)=O.[C-]#N.[Co+3]`, in assay [2], the viability is 92% and 72.6%. The nuclear beta-catenin stimulation in assay [1] is 2.8%.

Regarding `O=C(O[C@H]1CN2CCC1CC2)C1NCc2ccccc2[C@@H]1c1ccccc1` (stereo not given in full), the values for the normalised cell number in assay [3] (setting [4]) and in assay [3] (setting [5]) were 1.07 and 1.17, respectively.

`O=[N+]([O-])OCC(CO[N+](=O)[O-])(CO[N+](=O)[O-])CO[N+](=O)[O-]`: the nuclear beta-catenin stimulation in assay [1] turned out to be 1.5%.

As to `CN(C(=O)Cc1ccccc1)[C@H]1CC[C@@]2(CCCO2)C[C@@H]1N1CCCC1`, the nuclear beta-catenin stimulation in assay [1] is 3.3%.

`O=P(O)(O)F`: the normalised cell number in assay [3] (setting [4]) came to 1.07; in assay [3] (setting [5]) it was 1.01.

As for `NC(=O)Nc1ccc([As](=O)(O)O)cc1`, the viability in assay [2] was 102% and 78.4%. Moreover, the nuclear beta-catenin stimulation in assay [1] was -0.7%. Moreover, the normalised cell number came out at 1.08 in assay [3] (setting [4]) and 1.14 in assay [3] (setting [5]).

As for `CCOP(=O)(CC)Oc1ccc([N+](=O)[O-])cc1` (stereo not given), the nuclear beta-catenin stimulation in assay [1] was 1.6%.
